Results are given in words; binding and its absence hold for the method and conditions named. In cells and extracts the contact can be indirect. Some results given as binding are weak or reduced against the parent protein; the word gives no strength.
Columns and labels:
[1] = target: BHV-1 envelope glycoprotein M (gM) (Bovine herpesvirus type 1 (BHV-1), Cooper (Colorado-1) strain); assay: co-IP; 35S-labeled lysates of virus-infected MDBK cells immunoprecipitated with anti-gM polyclonal antibody (protein A-Sepharose), reducing SDS-PAGE, autoradiography
[2] = target: BHV-1 tegument protein VP22 (Bovine herpesvirus type 1 (BHV-1), Cooper (Colorado-1) strain) (UniProt D5KR85); assay: co-IP; lysates of wt, C42S, CT-null and C42S/CT-null virus-infected cells immunoprecipitated with anti-VP22 antibody; Western blot with anti-UL49.5, anti-VP22 and anti-gE
[3] = target: BHV-1 UL49.5 CT-null (Bovine herpesvirus type 1 (BHV-1), Cooper (Colorado-1) strain) (UniProt Q77CE4); assay: co-IP; 35S-labeled lysates of virus-infected MDBK cells immunoprecipitated with anti-UL49.5 polyclonal antibody (protein A-Sepharose), reducing SDS-PAGE, autoradiography
[4] = target: BHV-1 envelope glycoprotein M (gM) (Bovine herpesvirus type 1 (BHV-1), Cooper (Colorado-1) strain); assay: co-IP; lysates of wt, C42S, CT-null and C42S/CT-null virus-infected cells immunoprecipitated with anti-gM antibody; Western blot with anti-gM and anti-VP22

Protein sequences, listed by entry. Tags and fused reporters are not part of them. Residues count along the entry.
UniProt D5KR85: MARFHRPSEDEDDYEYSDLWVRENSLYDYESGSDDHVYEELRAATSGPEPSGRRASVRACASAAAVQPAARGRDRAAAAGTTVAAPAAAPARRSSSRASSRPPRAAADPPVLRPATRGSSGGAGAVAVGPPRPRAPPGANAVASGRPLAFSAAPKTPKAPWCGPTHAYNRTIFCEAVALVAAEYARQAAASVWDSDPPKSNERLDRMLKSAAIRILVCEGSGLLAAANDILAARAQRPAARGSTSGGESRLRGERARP
UniProt Q77CE4, residues 22-79: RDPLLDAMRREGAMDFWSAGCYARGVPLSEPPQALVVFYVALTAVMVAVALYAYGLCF
UniProt A0A0U2T5D3: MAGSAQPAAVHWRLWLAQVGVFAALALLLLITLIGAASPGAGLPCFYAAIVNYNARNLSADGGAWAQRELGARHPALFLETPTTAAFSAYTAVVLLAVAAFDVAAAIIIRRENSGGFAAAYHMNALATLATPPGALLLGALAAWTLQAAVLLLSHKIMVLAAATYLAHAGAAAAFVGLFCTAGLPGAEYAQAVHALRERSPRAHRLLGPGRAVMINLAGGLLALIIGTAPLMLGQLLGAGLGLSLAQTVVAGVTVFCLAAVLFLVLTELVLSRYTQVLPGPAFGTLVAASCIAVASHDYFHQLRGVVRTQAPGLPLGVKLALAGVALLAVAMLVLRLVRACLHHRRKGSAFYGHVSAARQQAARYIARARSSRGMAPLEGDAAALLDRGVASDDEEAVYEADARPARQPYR

BHV-1 UL49.5 CT-null (from UniProt Q77CE4 22-79) (domain or fragment)
binding [1]: binds
binding [2]: binds

BHV-1 envelope glycoprotein M (gM) (from UniProt A0A0U2T5D3 1-411)
binding [3]: binds

BHV-1 tegument protein VP22 (from UniProt D5KR85 1-258)
binding [4]: binds
